Source: the supplement of paper PMC6078165
Values are relative to the signal before dosing, not to a vehicle control; the signal also falls without drug.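 Labels refer to human fibroblasts, largely primary: uterine (C12385, HUF), lung (H6013), bone (Hs27A), adrenal (HADF), skin (WS1), plus mammary HMF and breast cancer-associated Hs343T. Cancer lines are basal-like or mesenchymal-like triple-negative breast cancer. The paper counts as hits responses shifting over 3x the replicate standard deviation. The tissue of the other fibroblasts is not given here.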 Numbered stars: 1 amine (or outer) side, 2 acyl side, 3 side chain; on linkers, the order of the positions; unused ones are H or OH. Bridge positions count the residues as written; N and C are the ends. Square brackets hold non-standard residues; d marks the D form. Peptide text beside a SMILES is read from it. I, II: the chains in the order shown. Actinocin(9to1) = Cc1c2oc3c(C)ccc(C(=O)[*:1])c3nc-2c(C(=O)[*:2])c(N)c1=O; NMeV = CN[C@H](C(=O)O)C(C)C; Sar = CNCC(=O)O

Tested on: MDAMB231
Assay: relative JC-1 red fluorescence (viability) vs pre-drug, coculture with fibroblast (fraction); higher = more viable cancer cells
Method: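 JC-1 labelled TNBC cells cocultured 1:1 (1,500 cells each) with CellTrace Violet stained primary or stromal fibroblasts in 384-well plates in FluoroBrite medium, treated with one of 42 anticancer drugs at 0.1, 1, 10 or 100 uM. JC-1 red fluorescence (mitochondrial integrity in cancer cells only) was read by plate reader every 8 h for 72 h. Values are normalised to each well's pre-drug value. The stock of one drug was tenfold lower, so its dose labels may be too high.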

Cc1c2oc3c(C)ccc(C(=O)N[C@@H]4C(=O)N[C@H](C(C)C)C(=O)N5CCC[C@H]5C(=O)N(C)CC(=O)N(C)[C@@H](C(C)C)C(=O)O[C@@H]4C)c3nc-2c(C(=O)N[C@@H]2C(=O)N[C@H](C(C)C)C(=O)N3CCC[C@H]3C(=O)N(C)CC(=O)N(C)[C@@H](C(C)C)C(=O)O[C@@H]2C)c(N)c1=O [Dactinomycin] (I: T[dV]P[Sar][NMeV] / II: T[dV]P[Sar][NMeV]; ester I:1-I:C, II:1-II:C; linker I:N-II:N via Actinocin(9to1))
relative JC-1 red fluorescence
Settings	8 h	16 h	24 h	32 h	40 h	48 h	56 h	64 h	72 h
10 µM, coculture fibroblast: C12385	0.78	0.727	0.688	0.623	0.564	0.551	0.536	0.566	0.559
10 µM, coculture fibroblast: H6013	0.924	0.837	0.743	0.675	0.613	0.602	0.573	0.549	0.514
10 µM, coculture fibroblast: H6019	0.781	0.644	0.614	0.545	0.523	0.513	0.495	0.493	0.475
10 µM, coculture fibroblast: H6076	0.883	0.768	0.661	0.607	0.567	0.539	0.525	0.513	0.518
10 µM, coculture fibroblast: H6231	0.874	0.821	0.782	0.737	0.692	0.667	0.64	0.637	0.627
10 µM, coculture fibroblast: HADF	0.9114	0.88	0.815	0.747	0.702	0.663	0.629	0.61	0.561
10 µM, coculture fibroblast: HCFa	0.9046	0.8415	0.777	0.702	0.649	0.61	0.579	0.546	0.511
10 µM, coculture fibroblast: HCPF	0.935	0.8696	0.801	0.761	0.718	0.674	0.635	0.616	0.596
10 µM, coculture fibroblast: HHSteC	0.9242	0.9078	0.844	0.787	0.741	0.71	0.656	0.633	0.599
10 µM, coculture fibroblast: HMF	0.916	0.859	0.791	0.747	0.691	0.655	0.61	0.583	0.578
10 µM, coculture fibroblast: HPFa	0.937	0.9	0.8215	0.753	0.723	0.698	0.659	0.641	0.606
10 µM, coculture fibroblast: HUF	0.853	0.7602	0.74	0.636	0.581	0.569	0.535	0.539	0.529
10 µM, coculture fibroblast: Hs5	0.906	0.867	0.833	0.779	0.747	0.704	0.698	0.677	0.66
10 µM, coculture fibroblast: Hs27A	0.9225	0.883	0.817	0.763	0.709	0.685	0.668	0.657	0.615
10 µM, coculture fibroblast: Hs343T	0.912	0.806	0.7149	0.659	0.585	0.555	0.521	0.507	0.495
10 µM, coculture fibroblast: WS1	0.78	0.725	0.669	0.603	0.57	0.556	0.527	0.527	0.52
100 µM, coculture fibroblast: C12385	0.698	0.677	0.561	0.543	0.465	0.457	0.427	0.405	0.374
100 µM, coculture fibroblast: H6013	0.8802	0.8042	0.7289	0.658	0.588	0.561	0.515	0.483	0.441
100 µM, coculture fibroblast: H6019	0.759	0.643	0.54	0.47	0.412	0.392	0.37	0.371	0.348
100 µM, coculture fibroblast: H6076	0.835	0.7392	0.656	0.623	0.585	0.557	0.529	0.525	0.507
100 µM, coculture fibroblast: H6231	0.891	0.835	0.797	0.776	0.759	0.722	0.674	0.654	0.626
100 µM, coculture fibroblast: HADF	0.8558	0.805	0.744	0.671	0.598	0.561	0.519	0.505	0.457
100 µM, coculture fibroblast: HCFa	0.8871	0.843	0.801	0.725	0.649	0.611	0.573	0.547	0.517
100 µM, coculture fibroblast: HCPF	0.8478	0.79	0.737	0.695	0.644	0.617	0.587	0.574	0.564
100 µM, coculture fibroblast: HHSteC	0.882	0.848	0.803	0.737	0.679	0.647	0.589	0.559	0.501
100 µM, coculture fibroblast: HMF	0.866	0.8158	0.7461	0.69	0.631	0.587	0.565	0.564	0.559
100 µM, coculture fibroblast: HPFa	0.9121	0.8863	0.806	0.715	0.673	0.641	0.58	0.562	0.515
100 µM, coculture fibroblast: HUF	0.843	0.78	0.803	0.679	0.621	0.616	0.577	0.577	0.57
100 µM, coculture fibroblast: Hs5	0.878	0.816	0.736	0.69	0.641	0.582	0.541	0.52	0.503
100 µM, coculture fibroblast: Hs27A	0.87	0.8047	0.7444	0.688	0.595	0.565	0.536	0.524	0.48
100 µM, coculture fibroblast: Hs343T	0.863	0.796	0.721	0.6693	0.6073	0.567	0.529	0.521	0.515
100 µM, coculture fibroblast: WS1	0.7216	0.6616	0.599	0.552	0.506	0.492	0.465	0.452	0.426
